Measured values from patent publication US5364414A, “Tinctorial composition for keratinous fibres containing oxidation dye precursors and aminoindole couplers, methods for dyeing using these compositions and new compounds” (L'Oreal, priority 1989, dated 1994).

Test: Hues obtained by oxidative coupling of the couplers with the dye precursors
Settings: oxidative coupling with para or ortho dye precursors

| SMILES | hues obtained by oxidative coupling with the dye precursors |
| --- | --- |
| Nc1ccc2cc[nH]c2c1 [6-aminoindole] | predominantly coppery hues (warm hues) |
| Nc1cccc2cc[nH]c12 [7-aminoindole] | hues having ashy or deep auburn glints |
